Source: US8865704B2, “Wnt pathway antagonists” (Siena Biotech S.p.A., priority 2009, dated 2014)
Some entries share one result that the patent states for a list of compounds. At least one structure is not confirmed: it was looked up by name or label, or the drawing left a doubt.

tested on: Wnt-independent Renilla Luciferase (TA-Renilla) reporter in DBTRG-05MG glioblastoma cell line; assay: Renilla read out (TA-Renilla, Wnt-independent reporter; internal control for cell number and toxicity); assay type: cell-based; conditions: DBTRG-05MG cells, 24 hours after compound addition

SMILES	effect in the renilla read out
COc1ccc2[nH]c(=O)n(C[C@H]3CC[C@H](C(=O)N4CCN(C(=O)c5ccncn5)CC4)CC3)c(=O)c2c1 [Example 117]	negligible effect
COc1ccc2c(c1)c(=O)n(C[C@H]1CC[C@H](C(=O)N3CCN(C(=O)C4CC4)[C@@H](C)C3)CC1)c(=O)n2C [Example 156]	negligible effect
COc1ccc2c(c1)c(=O)n(C[C@H]1CC[C@H](C(=O)Nc3cccnc3)CC1)c(=O)n2C [Example 153]	negligible effect
COc1ccc2c(c1)c(=O)n(C[C@H]1CC[C@H](C(=O)N3CCN(C(=O)C4CC4)C[C@H]3C)CC1)c(=O)n2C [Example 138]	negligible effect
O=c1[nH]c2ccc(Cl)cc2c(=O)n1C[C@H]1CC[C@H](C(=O)N2CCN(c3ccccc3)CC2)CC1 [Example 26]	negligible effect
CCOc1ccc2c(c1)c(=O)n(C[C@H]1CC[C@H](C(=O)N3CCN(C(C)=O)CC3)CC1)c(=O)n2C [Example 200]	negligible effect
O=C(C1CC1)N1CCN(C(=O)[C@H]2CC[C@H](Cn3c(=O)[nH]c4ccc(Cl)cc43)CC2)CC1 [Example 11, 6-Chloro-1-[trans-4-(4-cyclopropanecarbonyl-piperazine-1-carbonyl)cyclohexylmethyl]-1,3-dihydro-benzoimidazol-2-one]	negligible effect
COc1ccccc1NC(=O)[C@H]1CC[C@H](CN2C(=O)Cc3ccccc3N(C)C2=O)CC1 [Example 119]	negligible effect
O=C(C1CCCC1)N1CCN(C(=O)[C@H]2CC[C@H](Cn3c(=O)[nH]c4ccccc4c3=O)CC2)CC1 [Example 29]	negligible effect
COc1ccc2c(c1)n(C[C@H]1CC[C@H](C(=O)N3CCN(C(=O)c4cncn4C)CC3)CC1)c(=O)n2C [Example 185]	negligible effect
O=c1[nH]c2ccccc2c(=O)n1C[C@H]1CC[C@H](C(=O)N2CCN(c3ccc(F)cc3)CC2)CC1 [Example 20]	negligible effect
COc1ccc2c(c1)c(=O)n(C[C@H]1CC[C@H](C(=O)Nc3cncc(F)c3)CC1)c(=O)n2C [Example 174]	negligible effect
COc1ccc2c(c1)c(=O)n(C[C@H]1CC[C@H](C(=O)N3CCN(C(=O)C4CC4)[C@H](C)C3)CC1)c(=O)n2C [Example 150]	negligible effect
COc1ccc2[nH]c(=O)n(C[C@H]3CC[C@H](C(=O)N4CCN(C(=O)C(C)(C)F)CC4)CC3)c(=O)c2c1 [Example 96]	negligible effect
COc1ccc2c(c1)c(=O)n(C[C@H]1CC[C@H](C(=O)N3CCN(C(=O)c4ccno4)CC3)CC1)c(=O)n2C [Example 146]	negligible effect
O=C(C1CCC(Cn2cnc3ccccc3c2=O)CC1)N1CCN(Cc2ccccc2)CC1 (stereo not drawn) [Example 19]	negligible effect
COc1ccc2c(c1)c(=O)n(C[C@H]1CC[C@H](C(=O)Nc3ccncc3)CC1)c(=O)n2C [Example 165]	negligible effect
Cn1c(=O)n(C[C@H]2CC[C@H](C(=O)N3CCOCC3)CC2)c2cc(Cl)ccc21 [Example 181]	negligible effect
O=C(Nc1cccnc1)C1CCC(Cn2c(=O)[nH]c3ccccc3c2=O)CC1 (stereo not drawn) [Example 23]	negligible effect

SMILES	effect in the renilla read out
CCOc1ccc2c(c1)c(=O)n(C[C@H]1CC[C@H](C(=O)N3CCN(C(=O)c4cncn4C)CC3)CC1)c(=O)n2C [Example 206]	negligible effect
COc1ccc2[nH]c(=O)n(C[C@H]3CC[C@H](C(=O)N4CCN(c5ccncc5)CC4)CC3)c(=O)c2c1 [Example 139]	negligible effect
COc1ccc2c(c1)c(=O)n(C[C@H]1CC[C@H](C(=O)N3CCN(C(=O)c4cncn4C)CC3)CC1)c(=O)n2C [Example 122]	negligible effect
COc1ccc2c(c1)c(=O)n(C[C@H]1CC[C@H](C(=O)Nc3ccncc3C)CC1)c(=O)n2C [Example 172]	negligible effect
COc1ccc2c(c1)c(=O)n(C[C@H]1CC[C@H](C(=O)Nc3ccc(F)nc3)CC1)c(=O)n2C [Example 173]	negligible effect
CCOC(=O)N1CCN(C(=O)[C@H]2CC[C@H](Cn3c(=O)c4cc(OC)ccc4n(C)c3=O)CC2)CC1 [Example 176]	negligible effect
CC(C)N1CCN(C(=O)[C@H]2CC[C@H](Cn3c(=O)[nH]c4ccc(Cl)cc4c3=O)CC2)CC1 [Example 43]	negligible effect
COCC(=O)N1CCN(C(=O)[C@H]2CC[C@H](Cn3c(=O)[nH]c4ccc(OC)cc4c3=O)CC2)[C@H](C)C1 [Example 127]	negligible effect
COc1ccc2c(c1)c(=O)n(C[C@H]1CC[C@H](C(=O)N3CCN(C(=O)COC(C)C)CC3)CC1)c(=O)n2C [Example 141]	negligible effect
CN1C(=O)N(C[C@H]2CC[C@H](C(=O)N3CCN(c4ccccn4)CC3)CC2)C(=O)Cc2ccccc21 [Example 15, 1-Methyl-3-[trans-4-(4-pyridin-2-yl-piperazine-1-carbonyl)-cyclohexylmethyl]-1,5-dihydro-benzo[d][1,3]diazepine-2,4-dione]	negligible effect
CCOc1ccc2[nH]c(=O)n(C[C@H]3CC[C@H](C(=O)N4CCN(C(=O)C5CC5)CC4)CC3)c(=O)c2c1 [Example 161]	negligible effect
COc1ccc2c(c1)c(=O)n(C[C@H]1CC[C@H](C(=O)N3CCN(C(C)=O)CC3)CC1)c(=O)n2C [Example 136]	negligible effect
COc1ccc2c(c1)c(=O)n(C[C@H]1CC[C@H](C(=O)Nc3cnc4ccccn34)CC1)c(=O)n2C [Example 190]	negligible effect
COc1ccc2[nH]c(=O)n(C[C@H]3CC[C@H](C(=O)N4CCOCC4)CC3)c(=O)c2c1 [Example 89]	negligible effect
O=C(C1CCC(Cn2c(=O)[nH]c3ccccc3c2=O)CC1)N1CCN(c2ccccc2)CC1 (stereo not drawn) [Example 18]	negligible effect
O=C(C1CC1)N1CCN(C(=O)[C@H]2CC[C@H](Cn3c(=O)[nH]c4cc(Cl)ccc43)CC2)CC1 [Example 111]	negligible effect
O=C(c1cccs1)N1CCN(C(=O)[C@H]2CC[C@H](Cn3c(=O)[nH]c4ccccc4c3=O)CC2)CC1 [Example 37]	negligible effect
COc1ccc2c(c1)c(=O)n(C[C@H]1CC[C@H](C(=O)N3CCN(C(=O)c4ccncn4)CC3)CC1)c(=O)n2C [Example 147]	negligible effect
COCC(=O)N1CCN(C(=O)[C@H]2CC[C@H](Cn3c(=O)c4cc(OC)ccc4n(C)c3=O)CC2)C[C@H]1C [Example 151]	negligible effect

SMILES	effect in the renilla read out
COc1ccc2c(c1)c(=O)n(C[C@H]1CC[C@H](C(=O)Nc3ccc(-c4ncco4)cc3)CC1)c(=O)n2C [Example 189]	negligible effect
COc1ccc2[nH]c(=O)n(C[C@H]3CC[C@H](C(=O)N4CCN(c5cnccn5)CC4)CC3)c(=O)c2c1 [Example 91]	negligible effect
CCC(C)C(=O)N1CCN(C(=O)[C@H]2CC[C@H](Cn3c(=O)c4cc(OC)ccc4n(C)c3=O)CC2)CC1 (stereo partly drawn) [Example 123]	negligible effect
COc1ccccc1NC(=O)[C@H]1CC[C@H](CN2CCc3ccccc3NC2=O)CC1 [Example 118]	negligible effect
COc1ccc2c(c1)n(C[C@H]1CC[C@H](C(=O)N3CCN(C(=O)C(C)C)CC3)CC1)c(=O)n2C [Example 184]	negligible effect
O=C(C1CC1)N1CCN(C(=O)[C@H]2CC[C@H](Cn3c(=O)[nH]c4ccc(Cl)cc4c3=O)CC2)CC1 [Example 63]	negligible effect
COc1ccc2c(c1)c(=O)n(C[C@H]1CC[C@H](C(=O)Nc3ccc(OC)nc3OC)CC1)c(=O)n2C [Example 155]	negligible effect
COc1ccc2c(c1)c(=O)n(C[C@H]1CC[C@H](C(=O)Nc3cccc4cccnc34)CC1)c(=O)n2C.O=CO [Example 201]	negligible effect
Cn1c(=O)n(C[C@H]2CC[C@H](C(=O)N3CCN(C(=O)C4CC4)CC3)CC2)c(=O)c2ccccc21 [Example 56]	negligible effect
COc1ccc2c(c1)c(=O)n(C[C@H]1CC[C@H](C(=O)Nc3ccnc(OC)c3)CC1)c(=O)n2C [Example 177]	negligible effect
O=C(C1CC1)N1CCN(C(=O)[C@H]2CC[C@H](CN3Cc4cc(Cl)ccc4NC3=O)CC2)CC1 [Example 85]	negligible effect
O=C(c1ccco1)N1CCN(C(=O)C2CCC(Cn3c(=O)[nH]c4ccccc4c3=O)CC2)CC1 (stereo not drawn) [Example 48]	negligible effect
CC(c1ccccc1)N1CCN(C(=O)C2CCC(Cn3c(=O)[nH]c4ccccc4c3=O)CC2)CC1 (stereo not drawn) [Example 50]	negligible effect
COc1ccc2[nH]c(=O)n(C[C@H]3CC[C@H](C(=O)N4CCN(C(=O)c5ccno5)CC4)CC3)c(=O)c2c1 [Example 102]	negligible effect
COc1ccc2c(c1)c(=O)n(C[C@H]1CC[C@H](C(=O)Nc3ccc4nc(C)oc4c3)CC1)c(=O)n2C [Example 194]	negligible effect
COc1ccc2[nH]c(=O)n(C[C@H]3CC[C@H](C(=O)N4CCN(C(=O)[C@@H]5CCCO5)CC4)CC3)c(=O)c2c1 [Example 110]	negligible effect
COc1ccc2c(c1)n(C[C@H]1CC[C@H](C(=O)N3CCN(C(=O)C4CC4)CC3)CC1)c(=O)n2C [Example 135]	negligible effect
COc1ccc2[nH]c(=O)n(C[C@H]3CC[C@H](C(=O)N4CCN(C(=O)c5cncn5C)CC4)CC3)c(=O)c2c1.O=CO [Example 115]	negligible effect
COc1ccc2c(c1)n(C[C@H]1CC[C@H](C(=O)N3CCN(C(=O)c4nccn4C)CC3)CC1)c(=O)n2C [Example 211]	negligible effect
